No constants are given. Whether binding was seen depends on the method and setting. In cells and extracts the contact can be indirect. A result given as binding can be weak or reduced; the word gives no strength.
Molecular target: T1, Cyclin-dependent kinase 4 (rat (endogenous in primary ADSCs)) (UniProt P35426)
T1 sequence: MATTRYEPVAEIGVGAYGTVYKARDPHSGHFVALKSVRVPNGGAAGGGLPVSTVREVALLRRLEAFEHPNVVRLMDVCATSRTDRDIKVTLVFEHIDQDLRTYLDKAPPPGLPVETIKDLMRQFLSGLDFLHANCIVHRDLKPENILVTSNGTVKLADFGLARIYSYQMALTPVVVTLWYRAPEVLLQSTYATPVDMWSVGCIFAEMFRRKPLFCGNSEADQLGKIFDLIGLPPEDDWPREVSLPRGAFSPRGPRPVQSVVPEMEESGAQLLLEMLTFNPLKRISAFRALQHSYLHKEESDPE
Experiment: co-IP; anti-CDK4 antibody (Abcam, ab226474) with a commercial Co-IP kit (Thermo, 26149) on ADSC lysates, control or PA-treated (500 umol/l sodium palmitate, 12 h); precipitate read by WB

In the case of “deubiquitinase OTUD4 (rat (endogenous in primary ADSCs)) (enzyme)”, the binding was “binds”.

— paper PMC12743421
